Patent US20230201323A1, “VACCINE FORMULATIONS” (EUUALY S.A., priority 2020, published 2023)
Part of at least one peptide drawing is inferred or uncertain, most often the ends. Where a SMILES comes first, the peptide text is derived from it.

System: CD4+ T cells
Test: Phenotype and cytokine production of CD4+ T cells from mice immunized with SEQ ID NO:6, after 7 days of culture
Type: in vivo, C57BL/6 mice
Details: sacrificed day 35, 7 days of culture with antigen-presenting cells loaded with SEQ ID NO:5

CC[C@H](C)[C@H](NC(=O)CNC(=O)[C@@H](NC(=O)[C@H](CS)NC(=O)[C@@H]1CCCN1C(=O)[C@H](Cc1ccc(O)cc1)NC(=O)[C@H](CS)NC(=O)[C@@H](N)Cc1c[nH]cn1)[C@@H](C)O)C(=O)N[C@@H](CC(C)C)C(=O)N[C@@H](CC(=O)O)C(=O)N[C@@H](CO)C(=O)N[C@H](C(=O)NCC(=O)N[C@@H](CCCNC(=N)N)C(=O)N[C@@H](Cc1ccccc1)C(=O)N[C@@H](Cc1ccccc1)C(=O)N[C@@H](CO)C(=O)NCC(=O)O)[C@@H](C)CC [SEQ ID NO:6, HCYPCTGILDSIGRFFSG] (H-HCYPCTGILDSIGRFFSG-OH)
factor produced by CD4+ T cells: GDF11 | factors expressed by CD4+ T cells: ROR-α (NR1F1) and BMP7 | perforin expression by CD4+ T cells: no expression of perforin
